# Experiment: general procedure: peptide synthesis; carbodiimides with HOBt; BOP, PyBOP, PyBrOP; TBTU/HBTU, HATU (listed as usable r)
# Details: coupling step
row,Substance,step yield [%]
1,(1R)-1-[[(2S)-1-[2-(benzyloxy)-2-oxoethoxy]-3-cyclopropyl-1-oxopropan-2-yl](methyl)carbamoyl]-2-[4-(oxan-4-yl)phenyl]ethyl (2S)-2-[[(tert-butoxy)carbonyl](methyl)amino]-4-fluoro-4-methylpentanoate,42
2,(1R)-1-[[(2S)-1-[[(2R)-1-(benzyloxy)-1-oxopropan-2-yl]oxy]-3-cyclopropyl-1-oxopropan-2-yl](m-eth-yl)carbamoyl]-2-[4-(oxan-4-yl)phenyl]ethyl (2S)-2-[[(tert-butoxy)carbonyl](methyl)amino]-4-fluoro-4-methylpentanoate,68
3,(1R)-1-[[(2S)-1-[[(2R)-1-(benzyloxy)-3-[4-(oxan-4-yl)phenyl]-1-oxopropan-2-yl]oxy]-4-fluoro-4-methyl-1-oxopentan-2-yl](methyl)carbamoyl]ethyl (2S)-2-[[(tert-butoxy)carbonyl](methyl)amino]-4-methylpentanoate,76
4,(2R)-1-(benzyloxy)-1-oxopropan-2-yl (2S)-2-[(2R)-2-[[(2S)-2-[[(tert-butoxy)carbonyl](methyl)amino]-3-cyclopropylpropanoyl]oxy]-N-methyl-3-[4-(morpholin-4-yl)phenyl]propanamido]-4-methylpentanoate,59
5,(2R)-1-(benzyloxy)-1-oxopropan-2-yl (2S)-2-[(2R)-2-[[(2S)-2-[[(tert-butoxy)carbonyl](methyl)amino]-3-cyclopropylpropanoyl]oxy]-N-methyl-3-[6-(morpholin-4-yl)pyridin-3-yl]propanamido]-4-methylpentanoate,52
6,"(2R)-1-(benzyloxy)-3-[4-(3,6-dihydro-2H-pyran-4-yl)phenyl]-1-oxopropan-2-yl (2S)-2-[(2R)-2-[(1-[[(tert-butoxy)carbonyl](methyl)amino]cyclopropyl)carbonyloxy]—N-methylpropanamido]-4-fluoro-4-methylpentanoate",60
7,(S)—((R)-1-(((S)-1-((R)-1-(benzyloxy)-1-oxopropan-2-yloxy)-3-cyclopropyl-1-oxopropan-2-yl)(methyl)amino)-3-(4-morpholinophenyl)-1-oxopropan-2-yl) 2-(tert-butoxycarbonyl(methyl)amino)-3-cyclopropylpropanoate,76
8,(S)—((R)-1-(((S)-1-((R)-1-(benzyloxy)-1-oxopropan-2-yloxy)-3-cyclopropyl-1-oxopropan-2-yl)(methyl)amino)-3-(4-morpholinophenyl)-1-oxopropan-2-yl) 2-(tert-butoxycarbonyl(methyl)amino)-4-fluoro-4-methylpentanoate,65

# Same assay, conditions: cyclisation step
row,Substance,cyclisation yield [%]
1,"(3S,6R,9S,12R,15S,18R,21S,24R)-3,15-bis(cyclopropylmethyl)-9,21-bis(2-fluoro-2-methylpropyl)-4,-10,12,16,22,24-hexamethyl-6,18-bis([[4-(oxan-4-yl)phenyl]methyl])-1,7,13,19-tetraoxa-4,10,16,22-te-traazacyclotetracosan-2,5,8,11,14,17,20,23-octone",14
2,"(3S,6R,9S,15S,18R,21S)-3,15-bis(cyclopropylmethyl)-9,21-bis(2-fluoro-2-methylpropyl)-4,10,16,22-tetramethyl-6,18-bis([[4-(oxan-4-yl)phenyl]methyl])-1,7,13,19-tetraoxa-4,10,16,22-tetraazacyclotetracosan-2,5,8,11,14,17,20,23-octone",33
3,"(6R,9S,12R,15S,18R,21S,24R)-9,21-bis(2-fluoro-2-methylpropyl)-4,10,12,16,22,24-hexamethyl-15-(2-methylpropyl)-6,18-bis([[4-(oxan-4-yl)phenyl]methyl])-7,13,19,25-tetraoxa-4,10,16,22-tetraazaspiro[2.23]hexacosan-5,8,11,14,17,20,23,26-octone",39
4,"(6R,9S,12R,20R,23S,26R)-9,23-bis(2-fluoro-2-methylpropyl)-4,10,12,18,24,26-hexamethyl-6,20-bis([[4-(oxan-4-yl)phenyl]methyl])-7,13,21,27-tetraoxa-4,10,18,24-tetraazadispiro[2.11.2^[15].11^[3]]octacosan-5,8,11,14,19,22,25,28-octone",29

# Same assay, conditions: cyclisation step, on linear precursor OAC6-1
row,Substance,cyclisation yield [%]
1,"(3S,6R,9S,12R,15S,18R,21S,24R)-3,9,15,21-tetrakis(cyclopropylmethyl)-4,10,12,16,22,24-hexamethyl-6,18-bis([[4-(morpholin-4-yl)phenyl]methyl])-1,7,13,19-tetraoxa-4,10,16,22-tetraazacyclotetracosan-2,5,8,11,14,17,20,23-octone",13

# Same assay, conditions: cyclisation step, on linear precursor OAC6-7
row,Substance,cyclisation yield [%]
1,"(3S,6R,9S,12R,15S,18R,21S,24R)-3,15-bis(cyclopropylmethyl)-4,6,10,16,18,22-hexamethyl-9,21-bis(2-methylpropyl)-12,24-bis([[4-(morpholin-4-yl)phenyl]methyl])-1,7,13,19-tetraoxa-4,10,16,22-tetraazacyclotetracosan-2,5,8,11,14,17,20,23-octone",8

# Same assay, conditions: cyclisation step, on linear precursor OAC9-7
row,Substance,cyclisation yield [%]
1,"(3S,6R,9S,12R,15S,18R,21S,24R)-3,15-bis(cyclopropylmethyl)-4,6,10,16,18,22-hexamethyl-9,21-bis(2-methylpropyl)-12,24-bis([[6-(morpholin-4-yl)pyridin-3-yl]methyl])-1,7,13,19-tetraoxa-4,10,16,22-tetraazacyclotetracosan-2,5,8,11,14,17,20,23-octone",12

# Same assay, conditions: late stage modification step
row,Substance,step yield [%]
1,(1R)-1-[[(2S)-1-[[(2R)-1-(benzyloxy)-1-oxopropan-2-yl]oxy]-3-cyclopropyl-1-oxopropan-2-yl](methyl)carbamoyl]-2-[4-(morpholin-4-yl)phenyl]ethyl (2S)-4-fluoro-4-methyl-2-(methylamino)pentanoate,99
2,(2R)-1-(benzyloxy)-1-oxopropan-2-yl (2S)-2-[(2R)-2-[[(2S)-3-cyclopropyl-2-(methylamino)propanoyl]oxy]-N-methyl-3-[4-(morpholin-4-yl)phenyl]propanamido]-4-methylpentanoate,94
3,(2R)-1-(benzyloxy)-1-oxopropan-2-yl (2S)-2-[(2R)-2-[[(2S)-3-cyclopropyl-2-(methylamino)propanoyl]oxy]-N-methyl-3-[6-(morpholin-4-yl)pyridin-3-yl]propanamido]-4-methylpentanoate,97
4,(2R)-2-[[(2S)-2-[(2R)-2-[(1-[[(tert-butoxy)carbonyl](methyl)amino]cyclopropyl)carbonyloxy]-N-methylpropanamido]-4-fluoro-4-methylpentanoyl]oxy]-3-[4-(oxan-4-yl)phenyl]propanoic acid,83
5,(2R)-2-[[(2S)-2-[(2R)-2-[[(2S)-2-[[(tert-butoxy)carbonyl](methyl)amino]-3-cyclopropylpropanoyl]oxy]-N-methyl-3-[4-(morpholin-4-yl)phenyl]propanamido]-3-cyclopropylpropanoyl]oxy]propanoic acid,88
6,(2R)-2-[[(2S)-2-[(2R)-2-[[(2S)-2-[[(tert-butoxy)carbonyl](methyl)amino]-3-cyclopropylpropanoyl]oxy]-N-methyl-3-[4-(morpholin-4-yl)phenyl]propanamido]-4-methylpentanoyl]oxy]propanoic acid,91
7,(2R)-2-[[(2S)-2-[(2R)-2-[[(2S)-2-[[(tert-butoxy)carbonyl](methyl)amino]-3-cyclopropylpropanoyl]oxy]-N-methyl-3-[6-(morpholin-4-yl)pyridin-3-yl]propanamido]-4-methylpentanoyl]oxy]propanoic acid,98
8,(2R)-2-[[(2S)-2-[(2R)-2-[[(2S)-2-[[(tert-butoxy)carbonyl](methyl)amino]-4-fluoro-4-methylpentanoy-1]oxy]-N-methyl-3-[4-(oxan-4-yl)phenyl]propanamido]-3-cyclopropylpropanoyl]oxy]propanoic acid,97
9,(2R)-2-[[(2S)-2-[(2R)-2-[[(2S)-2-[[(tert-butoxy)carbonyl](methyl)amino]-4-fluoro-4-methylpentanoyl]oxy]-N-methyl-3-[4-(morpholin-4-yl)phenyl]propanamido]-3-cyclopropylpropanoyl]oxy]propanoic acid,83
10,(S)—((R)-1-(benzyloxy)-1-oxopropan-2-yl) 3-cyclopropyl-2((R)-2((S)-3-cyclopropyl-2-(methylamino)propanoyloxy)-N-methyl-3-(4-morpholinophenyl)propanamido)propanoate,94

# Source: patent publication US12018048B2 (BOEHRINGER INGELHEIM ANIMAL HEALTH USA INC., priority 2015, dated 2024)
